Data reported in PubChem BioAssay AID1671190 (National Center for Advancing Translational Sciences (NCATS), 2021).
In all, about 580,000 compounds went through this assay and about 6,100 (1.1%) were called active. This list was built around the results that the source calls inconclusive (neither active nor inactive); the mix of calls is not that of the screen. The call rests on the fitted dose curve; in most records, active means well fitted inhibition curve with a large enough effect; inconclusive means small, poorly fitted or top-dose-only effect, or another doubt; inactive means no such curve, though single readings can be large or run the other way. Potencies of inconclusive entries are doubtful fits and often do not repeat.

Chains of the proteins cited; added tags and fusions are not shown. Lines headed by an entry give the natural chain unless they say otherwise; changes in a name come on top.
UniProt P18054: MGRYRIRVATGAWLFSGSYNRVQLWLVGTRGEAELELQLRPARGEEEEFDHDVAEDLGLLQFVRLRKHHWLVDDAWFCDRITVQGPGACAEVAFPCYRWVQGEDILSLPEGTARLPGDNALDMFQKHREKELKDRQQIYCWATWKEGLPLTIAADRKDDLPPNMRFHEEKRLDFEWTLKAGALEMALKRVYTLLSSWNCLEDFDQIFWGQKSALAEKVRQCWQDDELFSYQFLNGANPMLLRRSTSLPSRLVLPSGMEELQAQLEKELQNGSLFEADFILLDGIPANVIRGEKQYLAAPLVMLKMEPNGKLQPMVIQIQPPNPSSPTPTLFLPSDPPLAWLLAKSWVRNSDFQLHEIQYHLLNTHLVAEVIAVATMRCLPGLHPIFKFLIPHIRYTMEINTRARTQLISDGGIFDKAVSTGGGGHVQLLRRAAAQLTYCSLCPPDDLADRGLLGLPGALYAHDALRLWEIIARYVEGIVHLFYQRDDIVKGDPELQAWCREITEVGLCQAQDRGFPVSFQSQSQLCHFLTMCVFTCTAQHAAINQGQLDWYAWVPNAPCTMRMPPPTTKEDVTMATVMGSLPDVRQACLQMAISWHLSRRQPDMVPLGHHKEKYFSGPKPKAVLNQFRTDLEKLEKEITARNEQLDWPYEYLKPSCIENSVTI

target: Polyunsaturated fatty acid lipoxygenase ALOX12 (Homo sapiens) (UniProt P18054); experiment: Primary qHTS assay for inhibitors of human arachidonate 12S-lipoxygenase (ALOX12): Round 2; details: purified 12hLO, xylenol orange hydroperoxide absorbance; activity change, negative = inhibition: at 108 µM (top of the series) unless noted
How it was run: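 Hydroperoxide product was detected by ferrous iron/xylenol orange as the 573 to 405 nm absorbance ratio. Arachidonic acid at 40 uM (final) was turned over for 30 min at room temperature by 150 nM human 12hLO, pH 7.0 Hepes buffer, after 15 min compound preincubation.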
On the % scale 0 is the no-effect control and ±100 the full control effect; potency means the concentration at half of the fitted maximal effect.

Compound | Potency | activity change, negative = inhibition
CC(=O)C(Sc1nccc(-c2cccs2)n1)C(C)=O | inconclusive: 1.78 µM [inhibitor, full curve, poor fit] | –
FC(F)(F)c1ccc(=S)[nH]c1 | active: 5.01 µM | –
COc1ccc(OC)c(-c2nnc3n2N=C(c2ccc(OC)c(OC4CCCC4)c2)CS3)c1 | inconclusive: 5.01 µM [inhibitor, full curve, poor fit] | –
O=C(CN1C(=O)C2CC=CCC2C1=O)Nc1nc(-c2ccc(F)cc2)cs1 (stereo unspecified) | inconclusive: 100 µM [inhibitor, single point] | –
CCCOc1ccc(CN(C(=O)Cc2coc3ccc(CC)cc23)C2CCS(=O)(=O)C2)cc1 (stereo unspecified) | inconclusive: 44.7 µM [inhibitor, partial curve, poor fit] | –
C[C@H](NC(=O)Cn1ccc2ccc(OCc3ccccc3)cc21)C(=O)O | inconclusive: 39.8 µM [inhibitor, partial curve, poor fit] | –
CCCn1c(=O)sc2cc(NC(=O)c3ccc(OC)c(Br)c3)ccc21 | – | inactive: -13.1%
CC(=O)Nc1ccc(NC(=O)c2ccc(-c3ccccc3Cl)o2)cc1 | inconclusive: 89.1 µM [inhibitor, partial curve, poor fit] | –
Cc1ccc(NC(=O)c2cccc(N3C(=O)C4C5C=CC(C5)C4C3=O)c2)cc1C (stereo unspecified) | – | inactive: 1.04%
O=C(Nc1ccc2c(c1)OCCO2)C(c1ccccc1)n1c(=O)c(-c2ccco2)nc2ccccc21 (stereo unspecified) | inconclusive: 44.7 µM [inhibitor, partial curve] | –
COc1cccc(C(C)NC(=S)NCc2ccc(F)cc2)c1 (stereo unspecified) | inconclusive: 44.7 µM [inhibitor, partial curve, poor fit] | –
COc1cccc(-c2cc(C(=O)O)c3ccc(C)c(C)c3n2)c1 | inconclusive: 44.7 µM [inhibitor, partial curve, poor fit] | –
O=C1NC2(CCN(C(=O)c3cccnc3)C2)N=C1c1cccnc1 (stereo unspecified) | inconclusive: 100 µM [inhibitor, partial curve, poor fit] | –
OCCC1CN(Cc2c(O)ccc3ccccc23)CCN1CCc1ccccc1 (stereo unspecified) | active: 7.08 µM | –
O=C(NCCc1cc2ccccc2[nH]1)Nc1cccc2ccccc12 | inconclusive: 56.2 µM [inhibitor, partial curve, poor fit] | –
Cc1cc(NCCN2CCOCC2)n2nc(C)c(-c3ccc(Cl)cc3)c2n1 | – | inactive: 101%
CCOC(=O)C1(C)C(C(=O)OC)=C(c2ccc(OC)cc2)c2ccccc2N1C(=O)OC (stereo unspecified) | inconclusive: 56.2 µM [inhibitor, partial curve, poor fit] | –
CCN(CC)S(=O)(=O)c1cccc(C(=O)Nc2cc(C)nn2-c2ccccc2)c1 | – | inactive: -19.3%
O=S(=O)(Nc1nnc(-c2ccccc2)s1)c1ccc(Cl)cc1 | inconclusive: 22.4 µM [inhibitor, partial curve, poor fit] | –
COc1ccc(Nc2nnc(-c3ccc(O)cc3)c3ccccc23)cc1 | inconclusive: 8.91 µM [inhibitor, partial curve, poor fit] | –
Cc1ccc(-c2cc(-c3ccccc3)nc(N/N=C/c3cccnc3)n2)cc1 | – | inactive: 5.83%

Compounds listed so far that have sulfur, in the order listed:
Compound | Potency | activity change, negative = inhibition
CC(=O)C(Sc1nccc(-c2cccs2)n1)C(C)=O | inconclusive: 1.78 µM [inhibitor, full curve, poor fit] | –
FC(F)(F)c1ccc(=S)[nH]c1 | active: 5.01 µM | –
COc1ccc(OC)c(-c2nnc3n2N=C(c2ccc(OC)c(OC4CCCC4)c2)CS3)c1 | inconclusive: 5.01 µM [inhibitor, full curve, poor fit] | –
O=C(CN1C(=O)C2CC=CCC2C1=O)Nc1nc(-c2ccc(F)cc2)cs1 (stereo unspecified) | inconclusive: 100 µM [inhibitor, single point] | –
CCCOc1ccc(CN(C(=O)Cc2coc3ccc(CC)cc23)C2CCS(=O)(=O)C2)cc1 (stereo unspecified) | inconclusive: 44.7 µM [inhibitor, partial curve, poor fit] | –
CCCn1c(=O)sc2cc(NC(=O)c3ccc(OC)c(Br)c3)ccc21 | – | inactive: -13.1%
COc1cccc(C(C)NC(=S)NCc2ccc(F)cc2)c1 (stereo unspecified) | inconclusive: 44.7 µM [inhibitor, partial curve, poor fit] | –
CCN(CC)S(=O)(=O)c1cccc(C(=O)Nc2cc(C)nn2-c2ccccc2)c1 | – | inactive: -19.3%
O=S(=O)(Nc1nnc(-c2ccccc2)s1)c1ccc(Cl)cc1 | inconclusive: 22.4 µM [inhibitor, partial curve, poor fit] | –

Continuation:

Compound | Potency | activity change, negative = inhibition
O=C(NC1CCCCC1)c1cccc2ncccc12 | – | inactive: -1.23%
CCSc1nc(NCCN(C)C)c2c3c(sc2n1)COC(C)(CC)C3 (stereo unspecified) | inconclusive: 126 µM [inhibitor, partial curve, poor fit] | –
Cc1ccc(NC(=O)CN2CCN(S(=O)(=O)c3ccc(C(C)C)cc3)CC2)cc1F | inconclusive: 100 µM [inhibitor, partial curve, poor fit] | –
Cn1ccnc1CC(C)(O)c1ccccc1 (stereo unspecified) | inconclusive: 35.5 µM [inhibitor, single point] | –
Brc1ccc(CNCC2CCCO2)cc1 (stereo unspecified) | inconclusive: 44.7 µM [inhibitor, partial curve, poor fit] | –
Cc1ccc2c(c1)NC(=O)C(CC(=O)NCc1ccc(F)cc1)O2 (stereo unspecified) | – | inactive: 362%
C[C@H](CO)N1C[C@H](C)[C@@H](CN(C)Cc2ccc(C(=O)O)cc2)Oc2c(NC(=O)C3CC3)cccc2C1=O | – | inactive: 31.2%
Cc1ccccc1CNC[C@H]1O[C@@H]2C[C@@H](CC(=O)N3CCOCC3)O[C@@H]2[C@@H]1O | inconclusive: 50.1 µM [inhibitor, partial curve, poor fit] | –
O=C(Nc1ccc(N2C(=O)C3C4C=CC(C4)C3C2=O)cc1Cl)c1cccs1 (stereo unspecified) | inconclusive: 44.7 µM [inhibitor, partial curve, poor fit] | –
COc1ccc(/C=C/C(=O)NNC(=O)c2cc(C)oc2C)cc1 | – | inactive: 13%
COc1nccnc1NS(=O)(=O)c1ccc(NCc2ccccc2O)cc1 | – | inactive: -7.21%
O=C(c1ccc(CC2CCNCC2)cc1)N1CCCC1 | inconclusive: 25.1 µM [inhibitor, full curve, poor fit] | –
O=C(Nc1cccc(Cl)c1)Nc1cc(S(=O)(=O)N2CCOCC2)ccc1N1CCCC1 | inconclusive: 50.1 µM [inhibitor, partial curve, poor fit] | –
N#CSc1ccc(NC(=O)c2ccc3c(c2)OCCO3)cc1 | inconclusive: 79.4 µM [inhibitor, partial curve, poor fit] | –
CCOc1ccc(OCC)c(Nc2ccc3cc(S(=O)(=O)N4CCCC4)ccc3n2)c1 | inconclusive: 63.1 µM [inhibitor, partial curve, poor fit] | –
COCCO[C@H]1C(=O)N(C2CCN(C(=O)Nc3ccccc3)CC2)[C@H]1c1ccncc1 | – | inactive: 47.5%
COc1ccc(C2/C(=C(\O)c3ccc(OC)c(Cl)c3)C(=O)C(=O)N2CCN(C)C)cc1 (stereo unspecified) | inconclusive: 3.16 µM [inhibitor, full curve, poor fit] | –
O=S(=O)(NCCc1c[nH]c2ccccc12)c1ccc(F)cc1 | inconclusive: 112 µM [inhibitor, single point] | –
COc1ccc2nc(SCC(=O)C(C)(C)C)[nH]c2c1 | inconclusive: 44.7 µM [inhibitor, partial curve, poor fit] | –
Cc1ccc(-c2c(CC(=O)O)c(C)nc3sc4c(c23)CCCC4)cc1 | inconclusive: 17.8 µM [inhibitor, full curve] | –
